Here are results for one sequence from publication PMC6030175.

Construct, isoform or probe ends are uncertain for at least one entry. At least one verdict rests on a figure or table, not on a statement of the authors.

The test system of this data set is RPA. As to the kind of experiment: EMSA. Conditions: 5 mM Mg2+, RPA 10 nM, DNA 1 nM, positive control; EMSA: 20 mM HEPES pH 7.4, 0.1% NP-40, 0.1 M KCl, 5 mM MgCl2, 1% glycerol, 0.25 ug/uL BSA, 1 mM DTT, 30 min, room temperature; 5% native gel, 0.5x TBE; recombinant protein; label: 5' 32P; single-stranded DNA.

Turning to “AACGTCATAGACGATTACATTGCTAGGACATCTTTGCCCACGTTGACCCA [X4]”, the binding result is on record as “binds”.
